No constants are given. Whether binding was seen depends on the method and setting. In cells and extracts the contact can be indirect. These calls come from enrichment with a bait or labelling near it, and not all partners need be listed.

The chains behind the UniProt entries cited, without tags or fusion partners.
UniProt P25054: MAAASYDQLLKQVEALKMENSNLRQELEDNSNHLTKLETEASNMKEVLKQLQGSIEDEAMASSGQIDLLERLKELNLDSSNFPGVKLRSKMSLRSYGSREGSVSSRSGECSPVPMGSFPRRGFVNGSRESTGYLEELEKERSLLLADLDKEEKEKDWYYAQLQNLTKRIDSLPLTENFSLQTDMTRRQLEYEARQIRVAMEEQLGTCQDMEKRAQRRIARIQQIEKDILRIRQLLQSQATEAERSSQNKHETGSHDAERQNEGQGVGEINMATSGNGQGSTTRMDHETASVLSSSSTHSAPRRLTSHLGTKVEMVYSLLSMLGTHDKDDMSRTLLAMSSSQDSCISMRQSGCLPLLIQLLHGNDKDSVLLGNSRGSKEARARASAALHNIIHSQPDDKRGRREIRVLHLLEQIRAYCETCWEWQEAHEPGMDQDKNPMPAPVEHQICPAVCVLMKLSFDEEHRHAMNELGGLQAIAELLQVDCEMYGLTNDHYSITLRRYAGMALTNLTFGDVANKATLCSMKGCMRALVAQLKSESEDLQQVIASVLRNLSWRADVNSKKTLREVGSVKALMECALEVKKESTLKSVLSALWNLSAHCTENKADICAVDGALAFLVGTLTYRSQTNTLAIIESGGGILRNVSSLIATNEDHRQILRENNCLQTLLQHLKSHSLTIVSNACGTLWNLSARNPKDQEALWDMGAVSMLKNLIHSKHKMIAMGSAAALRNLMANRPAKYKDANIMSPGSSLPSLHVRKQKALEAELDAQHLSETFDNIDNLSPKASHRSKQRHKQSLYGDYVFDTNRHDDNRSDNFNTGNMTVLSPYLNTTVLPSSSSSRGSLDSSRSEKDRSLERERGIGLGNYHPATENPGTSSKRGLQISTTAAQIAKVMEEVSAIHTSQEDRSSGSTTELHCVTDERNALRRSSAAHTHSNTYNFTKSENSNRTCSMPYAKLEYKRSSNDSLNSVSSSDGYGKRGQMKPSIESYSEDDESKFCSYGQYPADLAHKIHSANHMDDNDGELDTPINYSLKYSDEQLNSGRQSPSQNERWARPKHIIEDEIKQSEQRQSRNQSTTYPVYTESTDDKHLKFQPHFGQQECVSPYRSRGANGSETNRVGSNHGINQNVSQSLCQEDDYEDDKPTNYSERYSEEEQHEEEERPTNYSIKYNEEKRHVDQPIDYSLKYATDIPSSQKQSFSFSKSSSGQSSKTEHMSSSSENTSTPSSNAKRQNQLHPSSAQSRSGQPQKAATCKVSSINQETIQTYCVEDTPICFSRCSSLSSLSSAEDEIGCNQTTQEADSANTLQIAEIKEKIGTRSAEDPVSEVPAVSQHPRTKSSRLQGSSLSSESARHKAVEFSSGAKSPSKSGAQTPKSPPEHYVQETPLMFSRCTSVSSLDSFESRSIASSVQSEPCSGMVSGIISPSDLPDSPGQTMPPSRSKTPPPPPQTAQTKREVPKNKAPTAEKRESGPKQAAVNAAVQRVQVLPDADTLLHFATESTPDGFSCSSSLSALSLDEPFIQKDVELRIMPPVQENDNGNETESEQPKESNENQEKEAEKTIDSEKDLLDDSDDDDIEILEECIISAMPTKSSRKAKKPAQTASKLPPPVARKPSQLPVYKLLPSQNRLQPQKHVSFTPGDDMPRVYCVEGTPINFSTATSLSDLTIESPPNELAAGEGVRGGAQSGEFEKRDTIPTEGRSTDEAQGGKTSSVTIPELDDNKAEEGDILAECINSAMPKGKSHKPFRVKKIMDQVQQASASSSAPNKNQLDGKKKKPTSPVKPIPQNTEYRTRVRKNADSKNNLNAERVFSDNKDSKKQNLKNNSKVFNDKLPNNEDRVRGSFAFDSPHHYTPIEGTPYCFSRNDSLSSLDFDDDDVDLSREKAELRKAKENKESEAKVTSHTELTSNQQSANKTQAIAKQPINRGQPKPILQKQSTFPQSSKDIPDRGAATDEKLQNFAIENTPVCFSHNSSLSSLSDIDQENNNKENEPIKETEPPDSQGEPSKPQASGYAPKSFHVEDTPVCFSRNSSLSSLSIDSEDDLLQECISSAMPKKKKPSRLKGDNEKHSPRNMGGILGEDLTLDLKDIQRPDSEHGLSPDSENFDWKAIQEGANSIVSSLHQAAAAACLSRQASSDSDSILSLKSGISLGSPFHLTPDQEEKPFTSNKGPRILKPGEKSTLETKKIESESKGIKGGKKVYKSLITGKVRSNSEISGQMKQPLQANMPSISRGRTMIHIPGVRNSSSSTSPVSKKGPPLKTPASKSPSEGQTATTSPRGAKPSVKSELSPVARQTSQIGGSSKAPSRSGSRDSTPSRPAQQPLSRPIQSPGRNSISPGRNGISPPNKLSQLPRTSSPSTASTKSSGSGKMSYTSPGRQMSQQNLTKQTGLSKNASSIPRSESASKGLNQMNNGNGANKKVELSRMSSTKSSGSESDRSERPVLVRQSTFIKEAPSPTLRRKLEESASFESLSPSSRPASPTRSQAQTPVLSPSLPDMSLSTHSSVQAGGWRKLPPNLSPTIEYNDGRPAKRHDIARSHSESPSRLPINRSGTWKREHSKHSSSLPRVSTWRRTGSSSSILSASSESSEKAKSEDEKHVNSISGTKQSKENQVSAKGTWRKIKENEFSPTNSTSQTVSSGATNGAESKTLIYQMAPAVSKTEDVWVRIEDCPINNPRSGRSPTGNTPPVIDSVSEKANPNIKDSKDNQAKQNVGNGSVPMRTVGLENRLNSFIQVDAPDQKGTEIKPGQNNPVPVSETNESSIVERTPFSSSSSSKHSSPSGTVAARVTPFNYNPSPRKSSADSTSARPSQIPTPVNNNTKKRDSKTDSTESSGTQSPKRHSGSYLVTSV
UniProt P20700: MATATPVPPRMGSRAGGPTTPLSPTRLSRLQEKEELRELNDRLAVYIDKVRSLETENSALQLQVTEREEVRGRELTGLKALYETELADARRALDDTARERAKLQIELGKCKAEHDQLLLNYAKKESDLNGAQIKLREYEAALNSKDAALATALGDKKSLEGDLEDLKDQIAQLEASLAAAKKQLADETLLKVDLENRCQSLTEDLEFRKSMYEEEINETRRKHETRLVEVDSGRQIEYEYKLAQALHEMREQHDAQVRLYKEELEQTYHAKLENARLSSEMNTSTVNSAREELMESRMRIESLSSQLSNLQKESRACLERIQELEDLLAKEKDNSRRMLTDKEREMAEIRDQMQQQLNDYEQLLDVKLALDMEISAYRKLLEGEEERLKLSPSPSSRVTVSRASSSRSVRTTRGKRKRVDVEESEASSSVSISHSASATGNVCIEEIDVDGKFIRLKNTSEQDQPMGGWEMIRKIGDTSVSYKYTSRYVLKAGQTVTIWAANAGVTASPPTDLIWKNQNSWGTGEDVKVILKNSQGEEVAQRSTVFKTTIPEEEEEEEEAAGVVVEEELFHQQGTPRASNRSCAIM

The source of these data is publication PMC2774295.

In the test the target is Adenomatous Polyposis Coli (APC), endogenous full-length (human (endogenous in HCT116βw)) (UniProt P25054). Briefly: affinity purification with mass spectrometry; proteins co-precipitated with APC-M2 pAb from HCT116βw cell lysates, resolved on a 4-12% NUPAGE gel, nine bands excised and pooled, LC-MS/MS in independent duplicate; proteins found with preimmune sera subtracted.

In the case of Lamin B1 (from UniProt P20700 1-586), the binding entry is on record as “binds”.

B1: Keratin 81 (protein, UniProt Q14533 1-505)
chain: MTCGSGFGGRAFSCISACGPRPGRCCITAAPYRGISCYRGLTGGFGSHSVCGGFRAGSCGRSFGYRSGGVCGPSPPCITTVSVNESLLTPLNLEIDPNAQCVKQEEKEQIKSLNSRFAAFIDKVRFLEQQNKLLETKLQFYQNRECCQSNLEPLFEGYIETLRREAECVEADSGRLASELNHVQEVLEGYKKKYEEEVSLRATAENEFVALKKDVDCAYLRKSDLEANVEALIQEIDFLRRLYEEEILILQSHISDTSVVVKLDNSRDLNMDCIIAEIKAQYDDIVTRSRAEAESWYRSKCEEMKATVIRHGETLRRTKEEINELNRMIQRLTAEVENAKCQNSKLEAAVAQSEQQGEAALSDARCKLAELEGALQKAKQDMACLIREYQEVMNSKLGLDIEIATYRRLLEGEEQRLCEGIGAVNVCVSSSRGGVVCGDLCVSGSRPVTGSVCSAPCNGNVAVSTGLCAPCGQLNTTCGGGSCGVGSCGISSLGVGSCGSSCRKC
Consider B1, for which the binding entry is “binds”.

B2: Lamin B2 (protein, UniProt Q03252 1-620)
chain: MSPPSPGRRREQRRPRAAATMATPLPGRAGGPATPLSPTRLSRLQEKEELRELNDRLAHYIDRVRALELENDRLLLKISEKEEVTTREVSGIKALYESELADARRVLDETARERARLQIEIGKLRAELDEVNKSAKKREGELTVAQGRVKDLESLFHRSEVELAAALSDKRGLESDVAELRAQLAKAEDGHAVAKKQLEKETLMRVDLENRCQSLQEELDFRKSVFEEEVRETRRRHERRLVEVDSSRQQEYDFKMAQALEELRSQHDEQVRLYKLELEQTYQAKLDSAKLSSDQNDKAASAAREELKEARMRLESLSYQLSGLQKQASAAEDRIRELEEAMAGERDKFRKMLDAKEQEMTEMRDVMQQQLAEYQELLDVKLALDMEINAYRKLLEGEEERLKLSPSPSSRVTVSRATSSSSGSLSATGRLGRSKRKRLEVEEPLGSGPSVLGTGTGGSGGFHLAQQASASGSVSIEEIDLEGKFVQLKNNSDKDQSLGNWRIKRQVLEGEEIAYKFTPKYILRAGQMVTVWAAGAGVAHSPPSTLVWKGQSSWGTGESFRTVLVNADGEEVAMRTVKKSSVMRENENGEEEEEEAEFGEEDLFHQQGDPRTTSRGCYVM
For B2, the binding result is given as “binds”.

B3: Keratin 82 (protein, UniProt Q9NSB4 1-513)
chain: MSYHSFQPGSRCGSQSFSSYSAVMPRMVTHYAVSKGPCRPGGGRGLRALGCLGSRSLCNVGFGRPRVASRCGGTLPGFGYRLGATCGPSACITPVTINESLLVPLALEIDPTVQRVKRDEKEQIKCLNNRFASFINKVRFLEQKNKLLETKWNFMQQQRCCQTNIEPIFEGYISALRRQLDCVSGDRVRLESELCSLQAALEGYKKKYEEELSLRPCVENEFVALKKDVDTAFLMKADLETNAEALVQEIDFLKSLYEEEICLLQSQISETSVIVKMDNSRELDVDGIIAEIKAQYDDIASRSKAEAEAWYQCRYEELRVTAGNHCDNLRNRKNEILEMNKLIQRLQQETENVKAQRCKLEGAIAEAEQQGEAALNDAKCKLAGLEEALQKAKQDMACLLKEYQEVMNSKLGLDIEIATYRRLLEGEEHRLCEGIGPVNISVSSSKGAFLYEPCGVSTPVLSTGVLRSNGGCSIVGTGELYVPCEPQGLLSCGSGRKSSMTLGAGGSSPSHKH
For B3, the binding entry was “binds”.
